To fix the notation:
B1: Zinc finger transcription factor TRPS1 (protein, UniProt Q9UHF7 1-1281)
chain: MVRKKNPPLRNVASEGEGQILEPIGTESKVSGKNKEFSADQMSENTDQSDAAELNHKEEHSLHVQDPSSSSKKDLKSAVLSEKAGFNYESPSKGGNFPSFPHDEVTDRNMLAFSSPAAGGVCEPLKSPQRAEADDPQDMACTPSGDSLETKEDQKMSPKATEETGQAQSGQANCQGLSPVSVASKNPQVPSDGGVRLNKSKTDLLVNDNPDPAPLSPELQDFKCNICGYGYYGNDPTDLIKHFRKYHLGLHNRTRQDAELDSKILALHNMVQFSHSKDFQKVNRSVFSGVLQDINSSRPVLLNGTYDVQVTSGGTFIGIGRKTPDCQGNTKYFRCKFCNFTYMGNSSTELEQHFLQTHPNKIKASLPSSEVAKPSEKNSNKSIPALQSSDSGDLGKWQDKITVKAGDDTPVGYSVPIKPLDSSRQNGTEATSYYWCKFCSFSCESSSSLKLLEHYGKQHGAVQSGGLNPELNDKLSRGSVINQNDLAKSSEGETMTKTDKSSSGAKKKDFSSKGAEDNMVTSYNCQFCDFRYSKSHGPDVIVVGPLLRHYQQLHNIHKCTIKHCPFCPRGLCSPEKHLGEITYPFACRKSNCSHCALLLLHLSPGAAGSSRVKHQCHQCSFTTPDVDVLLFHYESVHESQASDVKQEANHLQGSDGQQSVKESKEHSCTKCDFITQVEEEISRHYRRAHSCYKCRQCSFTAADTQSLLEHFNTVHCQEQDITTANGEEDGHAISTIKEEPKIDFRVYNLLTPDSKMGEPVSESVVKREKLEEKDGLKEKVWTESSSDDLRNVTWRGADILRGSPSYTQASLGLLTPVSGTQEQTKTLRDSPNVEAAHLARPIYGLAVETKGFLQGAPAGGEKSGALPQQYPASGENKSKDESQSLLRRRRGSGVFCANCLTTKTSLWRKNANGGYVCNACGLYQKLHSTPRPLNIIKQNNGEQIIRRRTRKRLNPEALQAEQLNKQQRGSNEEQVNGSPLERRSEDHLTESHQREIPLPSLSKYEAQGSLTKSHSAQQPVLVSQTLDIHKRMQPLHIQIKSPQESTGDPGNSSSVSEGKGSSERGSPIEKYMRPAKHPNYSPPGSPIEKYQYPLFGLPFVHNDFQSEADWLRFWSKYKLSVPGNPHYLSHVPGLPNPCQNYVPYPTFNLPPHFSAVGSDNDIPLDLAIKHSRPGPTANGASKEKTKAPPNVKNEGPLNVVKTEKVDRSTQDELSTKCVHCGIVFLDEVMYALHMSCHGDSGPFQCSICQHLCTDKYDFTTHIQRGLHRNNAQVEKNGKPKE
B2: Transcription factor E2F7 (protein, UniProt Q96AV8 1-911)
chain: MEVNCLTLKDLISPRQPRLDFAVEDGENAQKENIFVDRSRMAPKTPIKNEPIDLSKQKKFTPERNPITPVKFVDRQQAEPWTPTANLKMLISAASPDIRDREKKKGLFRPIENKDDAFTDSLQLDVVGDSAVDEFEKQRPSRKQKSLGLLCQKFLARYPSYPLSTEKTTISLDEVAVSLGVERRRIYDIVNVLESLHLVSRVAKNQYGWHGRHSLPKTLRNLQRLGEEQKYEEQMAYLQQKELDLIDYKFGERKKDGDPDSQEQQLLDFSEPDCPSSSANSRKDKSLRIMSQKFVMLFLVSKTKIVTLDVAAKILIEESQDAPDHSKFKTKVRRLYDIANVLTSLALIKKVHVTEERGRKPAFKWIGPVDFSSSDEELVDVSASVLPELKRETYGQIQVCAKQKLARHGSFNTVQASERIQRKVNSEPSSPYREEQGSGGYSLEIGSLAAVYRQKIEDNSQGKAFASKRVVPPSSSLDPVAPFPVLSVDPEYCVNPLAHPVFSVAQTDLQAFSMQNGLNGQVDVSLASAASAVESLKPALLAGQPLVYVPSASLFMLYGSLQEGPASGSGSERDDRSSEAPATVELSSAPSAQKRLCEERKPQEEDEPATKRQSREYEDGPLSLVMPKKPSDSTDLASPKTMGNRASIPLKDIHVNGQLPAAEEISGKATANSLVSSEWGNPSRNTDVEKPSKENESTKEPSLLQYLCVQSPAGLNGFNVLLSGSQTPPTVGPSSGQLPSFSVPCMVLPSPPLGPFPVLYSPAMPGPVSSTLGALPNTGPVNFSLPGLGSIAQLLVGPTAVVNPKSSTLPSADPQLQSQPSLNLSPVMSRSHSVVQQPESPVYVGHPVSVVKLHQSPVPVTPKSIQRTHRETFFKTPGSLGDPVLKRRERNQSRNTSSAQRRLEIPSGGAD
B3: Ligand-dependent corepressor isoform 1 (protein, UniProt Q96JN0 1-433)
chain: MQRMIQQFAAEYTSKNSSTQDPSQPNSTKNQSLPKASPVTTSPTAATTQNPVLSKLLMADQDSPLDLTVRKSQSEPSEQDGVLDLSTKKSPCAGSTSLSHSPGCSSTQGNGRPGRPSQYRPDGLRSGDGVPPRSLQDGTREGFGHSTSLKVPLARSLQISEELLSRNQLSTAASLGPSGLQNHGQHLILSREASWAKPHYEFNLSRMKFRGNGALSNISDLPFLAENSAFPKMALQAKQDGKKDVSHSSPVDLKIPQVRGMDLSWESRTGDQYSYSSLVMGSQTESALSKKLRAILPKQSRKSMLDAGPDSWGSDAEQSTSGQPYPTSDQEGDPGSKQPRKKRGRYRQYNSEILEEAISVVMSGKMSVSKAQSIYGIPHSTLEYKVKERLGTLKNPPKKKMKLMRSEGPDVSVKIELDPQGEAAQSANESKNE
B4: Zinc finger E-box-binding homeobox 1 isoform a (protein, UniProt P37275 1-1124)
chain: MADGPRCKRRKQANPRRNNVTNYNTVVETNSDSDDEDKLHIVEEESVTDAADCEGVPEDDLPTDQTVLPGRSSEREGNAKNCWEDDRKEGQEILGPEAQADEAGCTVKDDECESDAENEQNHDPNVEEFLQQQDTAVIFPEAPEEDQRQGTPEASGHDENGTPDAFSQLLTCPYCDRGYKRFTSLKEHIKYRHEKNEDNFSCSLCSYTFAYRTQLERHMTSHKSGRDQRHVTQSGCNRKFKCTECGKAFKYKHHLKEHLRIHSGEKPYECPNCKKRFSHSGSYSSHISSKKCISLIPVNGRPRTGLKTSQCSSPSLSASPGSPTRPQIRQKIENKPLQEQLSVNQIKTEPVDYEFKPIVVASGINCSTPLQNGVFTGGGPLQATSSPQGMVQAVVLPTVGLVSPISINLSDIQNVLKVAVDGNVIRQVLENNQANLASKEQETINASPIQQGGHSVISAISLPLVDQDGTTKIIINYSLEQPSQLQVVPQNLKKENPVATNSCKSEKLPEDLTVKSEKDKSFEGGVNDSTCLLCDDCPGDINALPELKHYDLKQPTQPPPLPAAEAEKPESSVSSATGDGNLSPSQPPLKNLLSLLKAYYALNAQPSAEELSKIADSVNLPLDVVKKWFEKMQAGQISVQSSEPSSPEPGKVNIPAKNNDQPQSANANEPQDSTVNLQSPLKMTNSPVLPVGSTTNGSRSSTPSPSPLNLSSSRNTQGYLYTAEGAQEEPQVEPLDLSLPKQQGELLERSTITSVYQNSVYSVQEEPLNLSCAKKEPQKDSCVTDSEPVVNVIPPSANPINIAIPTVTAQLPTIVAIADQNSVPCLRALAANKQTILIPQVAYTYSTTVSPAVQEPPLKVIQPNGNQDERQDTSSEGVSNVEDQNDSDSTPPKKKMRKTENGMYACDLCDKIFQKSSSLLRHKYEHTGKRPHECGICKKAFKHKHHLIEHMRLHSGEKPYQCDKCGKRFSHSGSYSQHMNHRYSYCKREAEERDSTEQEEAGPEILSNEHVGARASPSQGDSDERESLTREEDEDSEKEEEEEDKEMEELQEEKECEKPQGDEEEEEEEEEVEEEEVEEAENEGEEAKTEGLMKDDRAESQASSLGQKVGESSEQVSEEKTNEA
B5: WD repeat-containing protein C2orf44 isoform 1 (protein, UniProt Q9H6R7 1-721)
chain: MELGKGKLLRTGLNALHQAVHPIHGLAWTDGNQVVLTDLRLHSGEVKFGDSKVIGQFECVCGLSWAPPVADDTPVLLAVQHEKHVTVWQLCPSPMESSKWLTSQTCEIRGSLPILPQGCVWHPKCAILTVLTAQDVSIFPNVHSDDSQVKADINTQGRIHCACWTQDGLRLVVAVGSSLHSYIWDSAQKTLHRCSSCLVFDVDSHVCSITATVDSQVAIATELPLDKICGLNASETFNIPPNSKDMTPYALPVIGEVRSMDKEATDSETNSEVSVSSSYLEPLDLTHIHFNQHKSEGNSLICLRKKDYLTGTGQDSSHLVLVTFKKAVTMTRKVTIPGILVPDLIAFNLKAHVVAVASNTCNIILIYSVIPSSVPNIQQIRLENTERPKGICFLTDQLLLILVGKQKLTDTTFLPSSKSDQYAISLIVREIMLEEEPSITSGESQTTYSTFSAPLNKANRKKLIESLSPDFCHQNKGLLLTVNTSSQNGRPGRTLIKEIQSPLSSICDGSIALDAEPVTQPASLPRHSSTPDHTSTLEPPRLPQRKNLQSEKETYQLSKEVEILSRNLVEMQRCLSELTNRLHNGKKSSSVYPLSQDLPYVHIIYQKPYYLGPVVEKRAVLLCDGKLRLSTVQQTFGLSLIEMLHDSHWILLSADSEGFIPLTFTATQEIIIRDGSLSRSDVFRDSFSHSPGAVSSLKVFTGLAAPSLDTTGCCNHVDGMA

Sequences of proteins named here, by UniProt entry; tags and fusion partners are left off.
UniProt O00571: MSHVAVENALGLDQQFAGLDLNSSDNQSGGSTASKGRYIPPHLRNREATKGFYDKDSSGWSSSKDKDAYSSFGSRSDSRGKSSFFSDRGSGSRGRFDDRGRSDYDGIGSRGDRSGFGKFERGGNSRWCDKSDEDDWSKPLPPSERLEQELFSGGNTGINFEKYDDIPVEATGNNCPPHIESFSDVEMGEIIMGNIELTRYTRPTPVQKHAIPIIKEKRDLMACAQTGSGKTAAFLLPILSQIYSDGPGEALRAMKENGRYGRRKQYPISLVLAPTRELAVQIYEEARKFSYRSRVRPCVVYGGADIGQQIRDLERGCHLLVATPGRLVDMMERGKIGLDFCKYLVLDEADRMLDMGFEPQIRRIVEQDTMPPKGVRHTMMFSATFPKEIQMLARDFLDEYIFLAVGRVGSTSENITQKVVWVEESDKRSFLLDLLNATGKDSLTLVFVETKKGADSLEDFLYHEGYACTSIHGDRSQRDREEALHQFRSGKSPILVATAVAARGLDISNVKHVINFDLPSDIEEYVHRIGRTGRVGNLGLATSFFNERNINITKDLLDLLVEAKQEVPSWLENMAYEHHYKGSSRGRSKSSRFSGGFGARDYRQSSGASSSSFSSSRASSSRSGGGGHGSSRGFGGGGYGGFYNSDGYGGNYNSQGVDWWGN
UniProt Q14839: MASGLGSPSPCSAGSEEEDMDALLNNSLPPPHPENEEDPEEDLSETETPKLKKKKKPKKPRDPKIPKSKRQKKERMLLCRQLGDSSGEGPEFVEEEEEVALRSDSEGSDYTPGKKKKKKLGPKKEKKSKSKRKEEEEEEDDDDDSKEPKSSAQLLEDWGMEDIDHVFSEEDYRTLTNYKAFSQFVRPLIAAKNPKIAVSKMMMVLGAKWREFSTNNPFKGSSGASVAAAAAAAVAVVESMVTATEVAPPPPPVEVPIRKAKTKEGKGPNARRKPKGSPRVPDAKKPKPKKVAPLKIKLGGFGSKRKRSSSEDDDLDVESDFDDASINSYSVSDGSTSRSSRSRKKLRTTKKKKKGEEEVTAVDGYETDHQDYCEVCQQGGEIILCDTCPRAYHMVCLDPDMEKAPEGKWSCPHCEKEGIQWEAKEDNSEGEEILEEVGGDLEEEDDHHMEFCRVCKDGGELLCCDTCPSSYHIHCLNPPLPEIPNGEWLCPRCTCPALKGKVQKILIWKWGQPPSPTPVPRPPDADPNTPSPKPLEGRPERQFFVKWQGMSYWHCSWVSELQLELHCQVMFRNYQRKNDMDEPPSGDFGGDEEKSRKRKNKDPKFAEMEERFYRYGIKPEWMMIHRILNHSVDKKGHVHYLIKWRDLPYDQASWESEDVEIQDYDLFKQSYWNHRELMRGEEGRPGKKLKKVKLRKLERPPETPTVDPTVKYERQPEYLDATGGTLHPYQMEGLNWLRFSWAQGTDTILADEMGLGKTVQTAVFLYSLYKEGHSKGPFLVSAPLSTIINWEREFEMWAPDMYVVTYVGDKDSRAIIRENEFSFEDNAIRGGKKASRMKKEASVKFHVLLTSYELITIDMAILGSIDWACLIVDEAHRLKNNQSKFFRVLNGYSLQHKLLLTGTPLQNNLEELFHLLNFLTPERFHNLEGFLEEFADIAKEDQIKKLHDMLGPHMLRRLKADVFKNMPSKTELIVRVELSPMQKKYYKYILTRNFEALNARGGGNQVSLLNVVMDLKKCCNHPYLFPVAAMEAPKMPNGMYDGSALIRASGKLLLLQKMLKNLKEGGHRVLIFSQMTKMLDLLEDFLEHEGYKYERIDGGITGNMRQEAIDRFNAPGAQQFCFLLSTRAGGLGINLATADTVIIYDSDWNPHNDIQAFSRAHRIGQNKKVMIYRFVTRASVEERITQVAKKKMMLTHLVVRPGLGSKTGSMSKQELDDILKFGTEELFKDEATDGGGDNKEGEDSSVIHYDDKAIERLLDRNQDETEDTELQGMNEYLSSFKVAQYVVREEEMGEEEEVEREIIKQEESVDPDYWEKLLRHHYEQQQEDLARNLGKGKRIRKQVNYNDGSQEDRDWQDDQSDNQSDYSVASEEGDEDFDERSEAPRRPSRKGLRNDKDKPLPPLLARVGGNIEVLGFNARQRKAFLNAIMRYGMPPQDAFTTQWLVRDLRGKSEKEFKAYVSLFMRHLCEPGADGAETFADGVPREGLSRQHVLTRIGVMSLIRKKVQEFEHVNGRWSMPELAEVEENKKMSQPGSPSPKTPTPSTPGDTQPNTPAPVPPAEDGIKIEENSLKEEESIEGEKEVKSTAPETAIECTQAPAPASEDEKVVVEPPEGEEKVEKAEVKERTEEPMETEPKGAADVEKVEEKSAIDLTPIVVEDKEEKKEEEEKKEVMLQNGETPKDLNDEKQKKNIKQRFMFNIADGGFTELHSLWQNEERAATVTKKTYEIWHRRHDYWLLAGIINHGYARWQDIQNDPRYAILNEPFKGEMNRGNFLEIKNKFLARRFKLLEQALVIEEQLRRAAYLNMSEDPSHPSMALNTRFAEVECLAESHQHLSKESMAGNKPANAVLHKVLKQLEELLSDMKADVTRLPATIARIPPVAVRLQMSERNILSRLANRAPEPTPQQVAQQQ
UniProt Q5T5U3: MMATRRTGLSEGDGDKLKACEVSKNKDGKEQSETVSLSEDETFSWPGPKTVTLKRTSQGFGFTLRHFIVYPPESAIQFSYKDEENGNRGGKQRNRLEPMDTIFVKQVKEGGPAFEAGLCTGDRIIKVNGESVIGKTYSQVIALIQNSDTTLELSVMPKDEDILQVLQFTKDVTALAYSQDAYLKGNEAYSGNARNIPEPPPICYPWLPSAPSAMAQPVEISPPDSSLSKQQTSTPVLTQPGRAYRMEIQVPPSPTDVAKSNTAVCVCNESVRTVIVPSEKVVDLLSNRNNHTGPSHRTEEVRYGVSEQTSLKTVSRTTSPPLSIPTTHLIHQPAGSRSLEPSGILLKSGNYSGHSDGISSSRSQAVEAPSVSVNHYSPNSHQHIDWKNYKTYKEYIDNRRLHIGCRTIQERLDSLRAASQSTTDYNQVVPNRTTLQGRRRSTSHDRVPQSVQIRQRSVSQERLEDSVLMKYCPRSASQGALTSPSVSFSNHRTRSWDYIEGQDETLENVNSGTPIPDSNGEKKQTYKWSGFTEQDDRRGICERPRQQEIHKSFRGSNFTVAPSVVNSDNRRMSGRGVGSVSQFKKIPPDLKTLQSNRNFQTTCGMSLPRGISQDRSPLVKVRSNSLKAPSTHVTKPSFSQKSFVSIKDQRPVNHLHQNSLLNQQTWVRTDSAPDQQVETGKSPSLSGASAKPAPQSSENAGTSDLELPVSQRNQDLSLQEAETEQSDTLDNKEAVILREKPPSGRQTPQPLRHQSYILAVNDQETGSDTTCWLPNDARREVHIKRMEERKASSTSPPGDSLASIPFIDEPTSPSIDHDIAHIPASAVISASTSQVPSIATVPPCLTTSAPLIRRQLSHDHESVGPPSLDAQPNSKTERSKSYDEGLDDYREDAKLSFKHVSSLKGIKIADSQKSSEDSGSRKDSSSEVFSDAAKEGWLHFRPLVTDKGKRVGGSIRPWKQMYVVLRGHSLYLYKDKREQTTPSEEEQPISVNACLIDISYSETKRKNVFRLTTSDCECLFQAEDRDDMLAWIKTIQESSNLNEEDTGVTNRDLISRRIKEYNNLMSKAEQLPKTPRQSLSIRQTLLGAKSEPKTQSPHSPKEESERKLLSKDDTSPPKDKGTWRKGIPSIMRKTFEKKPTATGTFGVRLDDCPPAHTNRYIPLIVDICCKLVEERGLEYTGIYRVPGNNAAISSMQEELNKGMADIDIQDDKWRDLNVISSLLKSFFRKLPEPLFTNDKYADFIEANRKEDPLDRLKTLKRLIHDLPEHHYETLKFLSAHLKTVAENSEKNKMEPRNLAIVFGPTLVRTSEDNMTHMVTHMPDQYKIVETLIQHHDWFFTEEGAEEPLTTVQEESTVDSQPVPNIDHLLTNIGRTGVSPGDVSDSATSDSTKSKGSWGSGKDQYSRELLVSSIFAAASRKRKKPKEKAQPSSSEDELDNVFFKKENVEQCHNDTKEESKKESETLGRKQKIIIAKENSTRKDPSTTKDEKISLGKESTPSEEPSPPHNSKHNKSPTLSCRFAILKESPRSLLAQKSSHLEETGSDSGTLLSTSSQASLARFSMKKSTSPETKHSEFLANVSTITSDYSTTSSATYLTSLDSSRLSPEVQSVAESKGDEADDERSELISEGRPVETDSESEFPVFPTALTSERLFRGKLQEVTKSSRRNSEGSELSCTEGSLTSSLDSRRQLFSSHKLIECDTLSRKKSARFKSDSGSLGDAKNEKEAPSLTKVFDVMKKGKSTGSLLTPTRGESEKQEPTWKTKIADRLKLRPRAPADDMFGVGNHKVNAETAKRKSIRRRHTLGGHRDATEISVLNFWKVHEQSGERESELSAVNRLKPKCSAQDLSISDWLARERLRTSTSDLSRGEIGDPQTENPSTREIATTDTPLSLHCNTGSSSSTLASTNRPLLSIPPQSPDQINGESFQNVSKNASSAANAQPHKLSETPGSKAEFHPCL
UniProt Q8WXI9: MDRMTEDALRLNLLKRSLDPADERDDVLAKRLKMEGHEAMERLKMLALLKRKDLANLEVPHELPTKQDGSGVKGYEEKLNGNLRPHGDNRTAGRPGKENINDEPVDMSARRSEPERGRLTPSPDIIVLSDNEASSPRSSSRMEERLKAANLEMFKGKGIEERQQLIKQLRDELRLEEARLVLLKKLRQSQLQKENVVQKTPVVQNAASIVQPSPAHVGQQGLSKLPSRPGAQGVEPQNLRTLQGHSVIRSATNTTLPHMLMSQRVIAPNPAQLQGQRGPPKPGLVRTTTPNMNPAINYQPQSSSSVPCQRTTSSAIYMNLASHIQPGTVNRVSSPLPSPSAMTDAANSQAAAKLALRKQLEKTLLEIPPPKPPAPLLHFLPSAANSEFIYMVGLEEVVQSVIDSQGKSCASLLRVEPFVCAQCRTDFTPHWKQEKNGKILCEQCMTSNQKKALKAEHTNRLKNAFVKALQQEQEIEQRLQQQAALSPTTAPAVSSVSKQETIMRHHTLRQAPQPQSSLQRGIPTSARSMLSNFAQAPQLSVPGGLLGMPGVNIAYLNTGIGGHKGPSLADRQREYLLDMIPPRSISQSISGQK

No constants are given. Whether binding was seen depends on the method and setting. In cells and extracts the contact can be indirect. These calls come from enrichment with a bait or labelling near it, and not all partners need be listed.

This test addresses Flag-HA-tagged CtBP2 (UniProt P56545). Briefly: affinity purification with mass spectrometry; whole cell lysates of HeLa/FH-CtBP2 cells (untreated or treated with TSA); Flag antibody, elution with Flag peptide, then HA antibody beads; on-bead trypsin digestion and LC-MS; normal HeLa as control.
For “Histone deacetylase 2 (from UniProt Q92769 1-488)”, the binding entry was “binds”.

Consider “Human Dead-Box Rna Helicase Ddx3x (from UniProt O00571 1-662)”, for which the binding entry was “binds”. As for “Mi-2 protein (CHD4) (from UniProt Q14839 1-1912)”, the binding entry is reported as “binds”. To “Rho GTPase-activating protein 21 (from UniProt Q5T5U3 1-1958)” belongs “binds”.

As for “Transcriptional repressor p66-beta (from UniProt Q8WXI9 1-593)”, the binding result is on record as “binds”. On to B1, for which the binding entry is on record as “binds”. Take B2: the binding result is recorded as “binds”. With B3, the binding entry is given as “binds”. With B4, the binding entry is given as “binds”.

Regarding B5, the binding entry is “binds”.

(Values after PMC4063256.)
